The campaign covered roughly 190,000 compounds. About 110 (0.058%) were called active. The inconclusive results got no clear call from the source; some entries with a clear call stand among them for comparison.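 How the source made its calls: active means fluorescent GTP binding to Rab7 beads changed by at least 20 points from the 100% baseline, either direction, mostly lower; inconclusive means compound itself probably fluorescent, or too few beads counted; inactive means the rest.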
These compounds were tested on Rab7 GTPase wild type (dog), Bodipy-FL-GTP binding (assay: modulators of GTP binding to Rab7, primary screen, biochemical, wildtype, multiplex bead flow cytometry (AID 758;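 further: median green fluorescence of bound Bodipy-FL-GTP per Rab7 bead population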)). Details: GST-Rab7 beads, fluorescent GTP binding, at 10 µM, actives lie on both sides, untreated = 100%, excess cold GTP = 0%.
With `COc1ccc2cc(C(=O)C3CCCN(C(=O)Cc4c(C)noc4C)C3)ccc2c1` (stereo not drawn) the GTP binding activity (percent of control) was inactive: 96%.
In the case of `COc1ccc(CC(=O)NNS(=O)(=O)c2ccc(F)cc2)cc1OC`, the GTP binding activity (percent of control) is reported as inconclusive: 94%.
`COc1ccc(OCc2nc(C#N)c(NCCCn3ccnc3)o2)cc1` was tested, and the GTP binding activity (percent of control) was inactive: 99%.
With `COc1ccc(Cl)c2c1[nH]c1nc(SCc3ccccn3)nnc12` the GTP binding activity (percent of control) was inconclusive: 89%.
With `Cc1c(C(=O)NCCCN2CCOCC2)sc2nc(-c3ccc(F)cc3)cn12` the GTP binding activity (percent of control) was inactive: 98%.
`COc1ccccc1CNC(=O)c1cc2c(C)nn(Cc3ccc(F)cc3)c2s1` was tested, and the GTP binding activity (percent of control) was inconclusive: 106%.
For `CC(C)CC(C(=O)NC1CCCC1)N(Cc1ccc2c(c1)OCO2)C(=O)c1snc(C(N)=O)c1N` (stereo not drawn), the GTP binding activity (percent of control) was inconclusive: 95%.
With `O=c1[nH]c2cc([N+](=O)[O-])c([N+](=O)[O-])cc2[nH]c1=O` the GTP binding activity (percent of control) was inconclusive: 94%.
In the case of `COC(=O)c1c(NC(=O)c2ccoc2C)sc2c1CCC2`, the GTP binding activity (percent of control) is reported as inconclusive: 97%.
For `Cc1ccnn1CCC(=O)N1CCCC(CCC(=O)N2CCN(c3ccccn3)CC2)C1` (stereo not drawn), the GTP binding activity (percent of control) was inactive: 95%.
In the case of `CCOC(=O)c1cnc2cc3c(cn2c1=O)CCCC3`, the GTP binding activity (percent of control) is reported as inconclusive: 107%.
With `Nc1c(S(=O)(=O)c2ccccc2)c2nc3ccccc3nc2n1/N=C/c1cccc(O)c1` the GTP binding activity (percent of control) was inactive: 95%.
`COc1ccc(OC)c(/C=N/NC(=O)c2cc[n+](CC(=O)c3ccccc3)cc2)c1` was tested, and the GTP binding activity (percent of control) was inconclusive: 103%.
`O=C(Cn1cnc2cc([N+](=O)[O-])ccc2c1=O)NCCc1ccc(F)cc1` was tested, and the GTP binding activity (percent of control) was inconclusive: 91%.
In the case of `Cc1ccc(C2=NN(S(=O)(=O)c3ccccc3)C(c3ccccc3O)C2)cc1` (stereo not drawn), the GTP binding activity (percent of control) is reported as inconclusive: 123%.
`Fc1ccc(-c2csc3ncnc(Cl)c23)cc1` was tested, and the GTP binding activity (percent of control) was inconclusive: 98%.
For `O=C(O)c1cccc(Oc2ccc([N+](=O)[O-])cc2)c1`, the GTP binding activity (percent of control) was inactive: 115%.
`COc1ccccc1NC(=S)N(Cc1ccco1)Cc1cc2cc(C)ccc2[nH]c1=O` was tested, and the GTP binding activity (percent of control) was inactive: 96%.
With `Cc1ccc(S(=O)(=O)NCCCCCC(=O)Nc2c(C)n(C)n(-c3ccccc3)c2=O)cc1` the GTP binding activity (percent of control) was inactive: 107%.
`OCCNCCOc1ccc(Cl)c(Cl)c1` was tested, and the GTP binding activity (percent of control) was inconclusive: 101%.
With `O=C(Nc1cccnc1)c1ccc(CN2CCc3ccccc3C2)cc1` the GTP binding activity (percent of control) was inconclusive: 104%.
In the case of `CCn1c(=N)c(S(=O)(=O)c2ccccc2)cc2c(=O)n3ccccc3nc21`, the GTP binding activity (percent of control) is reported as inactive: 95%.
With `Cc1nn(-c2ccc(F)cc2)c(Cl)c1/C=C(\CC(=O)O)c1nc2ccccc2s1` the GTP binding activity (percent of control) was inconclusive: 86%.
With `Cc1cc(S(=O)(=O)NCCCN2CCOCC2)ccc1F` the GTP binding activity (percent of control) was inactive: 107%.
With `COc1ccc(C(=O)Nc2ccc(S(=O)(=O)N3CCCCC3)cc2)cc1OC` the GTP binding activity (percent of control) was inconclusive: 93%.
In the case of `Cn1cccc1/C=C1\SC(=S)N(NC(=O)c2ccccc2)C1=O`, the GTP binding activity (percent of control) is reported as inconclusive: 91%.
In the case of `O=[N+]([O-])c1ccccc1Oc1ncccc1[N+](=O)[O-]`, the GTP binding activity (percent of control) is reported as inconclusive: 93%.
In the case of `CCn1c2ccccc2c2cc(/C=N/O)ccc21`, the GTP binding activity (percent of control) is reported as inconclusive: 104%.
For `CN=C(Nc1cccc(OC)c1)SC1CC(=O)N(c2ccc(C(=O)O)cc2)C1=O` (stereo not drawn), the GTP binding activity (percent of control) was inactive: 102%.
For `N#Cc1ccc(-c2ccc(F)cc2)nc1Sc1ccc(F)cc1`, the GTP binding activity (percent of control) was inconclusive: 102%.
In the case of `Cc1ccc(NC(=O)c2cc(-c3ccccc3)nn2-c2ccccc2)cc1`, the GTP binding activity (percent of control) is reported as inconclusive: 97%.
With `Cc1ccc(S(=O)(=O)Nc2ccc(Br)cc2C(NCC(=O)O)c2ccccc2)cc1` (stereo not drawn) the GTP binding activity (percent of control) was inconclusive: 91%.
In the case of `Oc1ccc(Br)cc1C=Nc1ccc(Cl)cc1`, the GTP binding activity (percent of control) is reported as inconclusive: 96%.
For `O=C(/C=C/c1ccco1)NCC(=O)N/N=C/c1ccc(Cl)cc1`, the GTP binding activity (percent of control) was inconclusive: 93%.
In the case of `CC(=O)c1sc(NC(=O)c2ccc(C)c(C)c2)nc1C`, the GTP binding activity (percent of control) is reported as inconclusive: 93%.
In the case of `COc1ccc(CCNC(=O)CCNS(=O)(=O)c2cccc(Cl)c2)cc1OC`, the GTP binding activity (percent of control) is reported as inactive: 96%.
With `CCOc1ccc(NC(=S)N(CCc2c(C)[nH]c3ccccc23)Cc2ccco2)cc1` the GTP binding activity (percent of control) was inactive: 97%.
`CCOC(=O)Cc1csc(NC(=O)/C=C/c2cccc(Br)c2)n1` was tested, and the GTP binding activity (percent of control) was inactive: 101%.
In the case of `O=[N+]([O-])c1ccc2[nH]c3c(c2c1)CCCC3O` (stereo not drawn), the GTP binding activity (percent of control) is reported as inactive: 103%.
With `Cc1cc(C(F)(F)F)nc(SCC(=O)NC2=NC(=O)C(C)S2)n1` (stereo not drawn) the GTP binding activity (percent of control) was inconclusive: 104%.
In the case of `O=C(Nc1nc(-c2ccc(S(=O)(=O)N3CCCC3)cc2)cs1)c1ccco1`, the GTP binding activity (percent of control) is reported as inconclusive: 84%.
With `Cc1cc(OC(=O)c2ccccc2)n(CCC#N)n1` the GTP binding activity (percent of control) was inconclusive: 106%.
With `Cc1cc(C(=O)CCl)c(C)n1-c1cccc(S(=O)(=O)N2CCOCC2)c1` the GTP binding activity (percent of control) was inactive: 93%.
With `Cc1cccc(NC(=S)NNC(=O)c2ccc3c(c2)OCO3)c1` the GTP binding activity (percent of control) was inconclusive: 98%.
For `Oc1ccccc1N=Nc1ccccc1O`, the GTP binding activity (percent of control) was inconclusive: 96%.
For `Cc1occc1-c1nnc(SCC(=O)N(C)C)o1`, the GTP binding activity (percent of control) was inactive: 101%.
With `O=C(O)c1ccc(Cn2c(SCc3cc(=O)n4cc(Br)ccc4n3)nc3ccsc3c2=O)cc1` the GTP binding activity (percent of control) was inconclusive: 94%.
In the case of `COCCNC(=S)NCCCNc1nc2cc3c(cc2cc1C#N)OCO3`, the GTP binding activity (percent of control) is reported as inconclusive: 93%.
In the case of `CC(C)(C)C(=O)NC(=S)NCc1ccccc1`, the GTP binding activity (percent of control) is reported as inconclusive: 99%.
`COc1ccc(N2CCN(C(=O)COc3ncnc4ccccc34)CC2)cc1` was tested, and the GTP binding activity (percent of control) was inactive: 96%.
With `CCC(CC)COC(=O)C(C#N)c1nc2ccccc2nc1N1CCOCC1` (stereo not drawn) the GTP binding activity (percent of control) was inconclusive: 105%.
`Cc1ccc(Cn2cc(/C=C/C(=O)O)c(-c3ccccc3)n2)cc1` was tested, and the GTP binding activity (percent of control) was inconclusive: 99%.
With `COCCn1c(C)cc(C(=O)COC(=O)/C=C/c2cccc(OC)c2)c1C` the GTP binding activity (percent of control) was inconclusive: 91%.
For `COc1ccc2c(c1)nc(SCC(C)O)n2C` (stereo not drawn), the GTP binding activity (percent of control) was inconclusive: 104%.
`CC(C)C(=O)Nc1c(O)c2ccccc2[nH]c1=O` was tested, and the GTP binding activity (percent of control) was inconclusive: 103%.
`Cc1cc(C)nc(NS(=O)(=O)c2ccc(NC(=O)CCC3COc4ccccc4O3)cc2)n1` (stereo not drawn) was tested, and the GTP binding activity (percent of control) was inconclusive: 93%.
In the case of `O=C1CCCc2ccccc2N1Cc1ccccc1`, the GTP binding activity (percent of control) is reported as inconclusive: 97%.
For `CCn1c(=O)c(C(=O)Nn2c(C)nc3ccccc3c2=O)c(O)c2ccccc21`, the GTP binding activity (percent of control) was inconclusive: 91%.
With `O=C(CCc1ccccn1)N1CCCC(CNS(=O)(=O)c2cccs2)C1` (stereo not drawn) the GTP binding activity (percent of control) was active: 62%.
For `Cc1ccc(C2=Nc3cccnc3C(c3ccccc3)=NN2)cc1`, the GTP binding activity (percent of control) was inactive: 105%.
In the case of `COc1ccc(N2CCN(C(=O)Cn3cnc4c(cnn4-c4ccc(C)cc4)c3=O)CC2)cc1`, the GTP binding activity (percent of control) is reported as inactive: 104%.
For `O=C1NC(=S)N/C1=C/c1cc([N+](=O)[O-])ccc1N1CCOCC1`, the GTP binding activity (percent of control) was inconclusive: 90%.
For `CC1CN(C(=O)CSc2nnc(-c3ccncc3)n2-c2ccccc2)CC(C)O1` (stereo not drawn), the GTP binding activity (percent of control) was inconclusive: 93%.
For `O=C1/C(=C\c2ccc(-c3ccccc3Cl)o2)SC(=S)N1CC1CCCO1` (stereo not drawn), the GTP binding activity (percent of control) was active: 68%.
With `CSc1cccc(NS(=O)(=O)c2cccc3nsnc23)c1` the GTP binding activity (percent of control) was inconclusive: 98%.
`COC(=O)c1sccc1NC(=O)Nc1cccc(F)c1` was tested, and the GTP binding activity (percent of control) was inconclusive: 94%.
For `COc1ccc(C(=O)NCc2nnc(SCC(=O)NCc3ccc(F)cc3)o2)cc1`, the GTP binding activity (percent of control) was inconclusive: 103%.
With `CCN(CC)S(=O)(=O)c1cccc(NC(=O)CN2C(=O)c3ccc([N+](=O)[O-])cc3C2=O)c1` the GTP binding activity (percent of control) was inactive: 99%.
For `CCOc1ccc(C(=O)NCC(=O)N2CCC(C)CC2)cc1OCC`, the GTP binding activity (percent of control) was inactive: 94%.
With `O=C(NNC(=O)c1cccc(O)c1)Nc1ccc([N+](=O)[O-])cc1` the GTP binding activity (percent of control) was inconclusive: 95%.
For `CCn1c(C)c(C(C)=O)cc(C#N)c1=O`, the GTP binding activity (percent of control) was inactive: 102%.
With `COc1cc(/C=N/Nc2nncn2/N=C/c2ccc(O)c(OC)c2)ccc1O` the GTP binding activity (percent of control) was inactive: 91%.
With `O=C(O)CCCCCN1C(=O)C(O)=C(C(=O)/C=C/c2ccccc2)C1c1ccc2c(c1)OCO2` (stereo not drawn) the GTP binding activity (percent of control) was inconclusive: 90%.
For `O=C(c1ccccc1)c1ccc(O)cc1O`, the GTP binding activity (percent of control) was inconclusive: 109%.
For `CC(C)(C)C1CCc2onc(C(=O)Nc3cnn(Cc4ccc(F)cc4)c3)c2C1` (stereo not drawn), the GTP binding activity (percent of control) was inconclusive: 102%.
With `COc1cc2c(cc1NC(=O)CSc1ccccn1)oc1ccccc12` the GTP binding activity (percent of control) was inconclusive: 94%.
In the case of `c1ccc(CSc2nnnn2-c2cccc3ccccc23)nc1`, the GTP binding activity (percent of control) is reported as inconclusive: 105%.
With `CCOc1cc(NC(=S)NCCCN(C)C)c(OCC)cc1NC(=O)c1cccs1` the GTP binding activity (percent of control) was inconclusive: 104%.
In the case of `CC[C@H](C)[C@H](NC(N)=O)C(=O)Nc1ccccc1F`, the GTP binding activity (percent of control) is reported as inactive: 106%.
In the case of `Cc1c(C(=O)Nc2nc3ccccc3[nH]2)oc2c(Cl)cccc12`, the GTP binding activity (percent of control) is reported as inconclusive: 78%.
For `Cc1ccc(NC(=O)Cn2nc(C)cc2C)cc1`, the GTP binding activity (percent of control) was inconclusive: 102%.
In the case of `CC1CCOC2(O1)C(=O)N(CN1CCN(c3ccccc3F)CC1)c1ccccc12` (stereo not drawn), the GTP binding activity (percent of control) is reported as inconclusive: 96%.
With `CCCNC(=S)N1CCC(n2cnc3ccccc32)CC1` the GTP binding activity (percent of control) was inconclusive: 105%.
For `COc1ccc(-c2ccc(SCC(=O)Nc3nnc(C)s3)nn2)cc1`, the GTP binding activity (percent of control) was inconclusive: 94%.
`COc1cccc(C2=NN(C(=O)c3ccccc3)C(O)(C(F)(F)F)C2)c1` (stereo not drawn) was tested, and the GTP binding activity (percent of control) was inconclusive: 104%.
For `O=C(/C=C/c1cn(-c2ccccc2)nc1-c1ccccc1)Nc1ccc(C(=O)O)cc1`, the GTP binding activity (percent of control) was inconclusive: 88%.
For `c1cnc(N2CCN(Cc3ccc4c(c3)OCO4)CC2)nc1`, the GTP binding activity (percent of control) was inconclusive: 95%.
For `CNC(=O)c1ccc(Nc2nnc(-c3ccc(C)c(S(=O)(=O)NCC4CCCO4)c3)c3ccccc23)cc1` (stereo not drawn), the GTP binding activity (percent of control) was inconclusive: 95%.
In the case of `CCOc1cccc(NC(=O)c2cccc(F)c2)c1`, the GTP binding activity (percent of control) is reported as inactive: 96%.
`CCc1ccccc1NC(=O)CSc1nc2n[nH]c(C)c2c(=N)n1-c1cccc(OC)c1` was tested, and the GTP binding activity (percent of control) was inconclusive: 92%.
`CCCCN(C)CCNC(=O)CCNC(=O)Cn1ccc2ccccc2c1=O` was tested, and the GTP binding activity (percent of control) was inactive: 94%.
For `COC(=O)c1cc2c(C)cc3ccc(C)cn3c-2c1C(=O)OC`, the GTP binding activity (percent of control) was inconclusive: 98%.
With `C=CCN1C(=O)C(Cc2ccc(SC(F)F)cc2)SC1=Nc1ccc(C(=O)O)cc1` (stereo not drawn) the GTP binding activity (percent of control) was inactive: 103%.
